The results in this text go back to PMC4009770.

By UniProt entry, the sequences of proteins in these tests, tags left out.
UniProt Q9HC16, whole entry E254R: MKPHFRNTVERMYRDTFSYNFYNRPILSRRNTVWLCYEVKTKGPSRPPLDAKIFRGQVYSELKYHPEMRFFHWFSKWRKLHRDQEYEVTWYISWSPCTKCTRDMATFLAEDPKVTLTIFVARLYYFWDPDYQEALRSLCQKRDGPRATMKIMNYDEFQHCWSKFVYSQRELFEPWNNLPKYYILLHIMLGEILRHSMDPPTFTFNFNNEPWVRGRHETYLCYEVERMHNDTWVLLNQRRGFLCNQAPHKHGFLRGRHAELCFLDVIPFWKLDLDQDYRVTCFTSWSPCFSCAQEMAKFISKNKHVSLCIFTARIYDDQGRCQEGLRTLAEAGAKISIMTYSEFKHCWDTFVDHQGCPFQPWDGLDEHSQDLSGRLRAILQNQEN
UniProt Q9HC16, whole entry R213E: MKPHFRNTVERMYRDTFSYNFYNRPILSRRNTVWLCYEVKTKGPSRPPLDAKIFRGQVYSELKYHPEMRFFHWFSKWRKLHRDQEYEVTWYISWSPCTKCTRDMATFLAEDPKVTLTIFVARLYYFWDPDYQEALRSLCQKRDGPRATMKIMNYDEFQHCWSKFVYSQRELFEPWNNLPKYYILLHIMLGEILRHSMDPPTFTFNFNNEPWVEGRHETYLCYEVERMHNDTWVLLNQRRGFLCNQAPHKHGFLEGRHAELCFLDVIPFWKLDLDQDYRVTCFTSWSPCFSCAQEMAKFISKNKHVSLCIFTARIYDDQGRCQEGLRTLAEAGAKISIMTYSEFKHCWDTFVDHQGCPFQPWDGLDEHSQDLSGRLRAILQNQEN
UniProt Q9HC16, whole entry R320E: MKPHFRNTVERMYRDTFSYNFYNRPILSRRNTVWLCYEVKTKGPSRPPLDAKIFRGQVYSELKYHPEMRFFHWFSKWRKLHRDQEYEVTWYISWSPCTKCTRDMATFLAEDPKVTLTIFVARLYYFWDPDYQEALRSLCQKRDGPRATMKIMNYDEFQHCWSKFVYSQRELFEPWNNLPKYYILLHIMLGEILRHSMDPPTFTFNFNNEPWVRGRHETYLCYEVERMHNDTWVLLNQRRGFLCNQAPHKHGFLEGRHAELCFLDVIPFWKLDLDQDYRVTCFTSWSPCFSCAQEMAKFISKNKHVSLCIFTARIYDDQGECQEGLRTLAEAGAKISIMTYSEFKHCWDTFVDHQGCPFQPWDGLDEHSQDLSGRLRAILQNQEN
UniProt Q9HC16, whole entry R374E: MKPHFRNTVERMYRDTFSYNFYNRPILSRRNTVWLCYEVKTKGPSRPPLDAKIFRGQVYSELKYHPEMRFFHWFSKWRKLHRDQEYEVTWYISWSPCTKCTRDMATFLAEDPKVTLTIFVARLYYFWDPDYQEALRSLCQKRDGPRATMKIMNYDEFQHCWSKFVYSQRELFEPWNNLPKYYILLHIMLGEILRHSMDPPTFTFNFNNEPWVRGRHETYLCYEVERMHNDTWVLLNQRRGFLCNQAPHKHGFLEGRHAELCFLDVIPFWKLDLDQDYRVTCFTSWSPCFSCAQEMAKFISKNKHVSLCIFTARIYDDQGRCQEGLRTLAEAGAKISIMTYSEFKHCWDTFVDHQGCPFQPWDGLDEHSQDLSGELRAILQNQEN
UniProt Q9HC16, whole entry R376E: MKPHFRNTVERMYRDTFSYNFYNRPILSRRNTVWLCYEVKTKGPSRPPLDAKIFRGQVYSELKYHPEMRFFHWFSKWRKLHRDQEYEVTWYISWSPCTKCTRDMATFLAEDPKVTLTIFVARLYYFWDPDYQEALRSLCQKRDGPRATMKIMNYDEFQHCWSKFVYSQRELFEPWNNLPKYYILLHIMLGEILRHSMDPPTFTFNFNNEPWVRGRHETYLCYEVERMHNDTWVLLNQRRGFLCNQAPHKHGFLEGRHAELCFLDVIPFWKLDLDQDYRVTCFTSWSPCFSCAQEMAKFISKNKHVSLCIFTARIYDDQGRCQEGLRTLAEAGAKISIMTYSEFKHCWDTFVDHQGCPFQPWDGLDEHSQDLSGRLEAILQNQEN
UniProt Q9HC16, whole entry W127A: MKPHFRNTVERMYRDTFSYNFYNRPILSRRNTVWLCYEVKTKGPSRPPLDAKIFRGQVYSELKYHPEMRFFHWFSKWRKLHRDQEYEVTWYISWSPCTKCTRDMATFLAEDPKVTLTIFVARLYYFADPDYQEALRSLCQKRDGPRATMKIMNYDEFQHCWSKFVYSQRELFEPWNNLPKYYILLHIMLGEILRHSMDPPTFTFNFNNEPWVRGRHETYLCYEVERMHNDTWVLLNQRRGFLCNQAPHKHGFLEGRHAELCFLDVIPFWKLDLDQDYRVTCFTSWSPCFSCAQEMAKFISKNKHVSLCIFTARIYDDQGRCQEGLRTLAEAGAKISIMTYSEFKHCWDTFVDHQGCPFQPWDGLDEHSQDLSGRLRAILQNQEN
UniProt Q9HC16, whole entry W127A/R213E/R215E: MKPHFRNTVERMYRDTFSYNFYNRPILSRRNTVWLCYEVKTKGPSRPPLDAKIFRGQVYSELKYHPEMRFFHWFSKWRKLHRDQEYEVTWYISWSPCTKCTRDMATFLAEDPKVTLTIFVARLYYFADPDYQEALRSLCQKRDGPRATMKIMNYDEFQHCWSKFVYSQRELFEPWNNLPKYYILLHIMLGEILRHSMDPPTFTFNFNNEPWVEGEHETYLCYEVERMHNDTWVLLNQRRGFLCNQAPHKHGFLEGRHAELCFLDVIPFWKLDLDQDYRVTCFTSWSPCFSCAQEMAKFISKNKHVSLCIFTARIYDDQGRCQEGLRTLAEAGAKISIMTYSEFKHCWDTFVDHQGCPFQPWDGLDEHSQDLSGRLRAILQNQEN
UniProt Q9HC16, whole entry W127A/R313E/R320E: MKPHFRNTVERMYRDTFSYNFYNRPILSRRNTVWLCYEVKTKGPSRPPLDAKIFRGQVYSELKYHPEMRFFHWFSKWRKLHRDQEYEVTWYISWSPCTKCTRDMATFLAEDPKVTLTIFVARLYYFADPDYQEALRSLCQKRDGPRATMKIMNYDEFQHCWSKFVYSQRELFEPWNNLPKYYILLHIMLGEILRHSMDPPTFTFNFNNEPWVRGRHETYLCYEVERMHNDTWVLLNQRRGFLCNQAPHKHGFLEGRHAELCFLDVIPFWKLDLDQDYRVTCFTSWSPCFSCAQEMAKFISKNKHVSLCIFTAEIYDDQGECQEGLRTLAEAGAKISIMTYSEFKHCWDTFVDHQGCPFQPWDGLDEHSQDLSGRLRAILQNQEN
UniProt Q9HC16, whole entry W127A/R374E/R376E: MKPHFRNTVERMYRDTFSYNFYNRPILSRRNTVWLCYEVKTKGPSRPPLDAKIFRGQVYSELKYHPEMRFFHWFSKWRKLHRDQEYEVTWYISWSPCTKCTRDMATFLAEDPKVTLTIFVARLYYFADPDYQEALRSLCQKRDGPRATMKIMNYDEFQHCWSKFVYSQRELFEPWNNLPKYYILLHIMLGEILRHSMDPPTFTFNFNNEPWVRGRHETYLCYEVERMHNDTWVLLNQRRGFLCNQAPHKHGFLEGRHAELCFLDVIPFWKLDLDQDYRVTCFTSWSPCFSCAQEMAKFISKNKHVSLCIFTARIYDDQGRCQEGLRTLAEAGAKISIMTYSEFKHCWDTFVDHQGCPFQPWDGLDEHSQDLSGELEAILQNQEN
UniProt Q9HC16, whole entry W285A: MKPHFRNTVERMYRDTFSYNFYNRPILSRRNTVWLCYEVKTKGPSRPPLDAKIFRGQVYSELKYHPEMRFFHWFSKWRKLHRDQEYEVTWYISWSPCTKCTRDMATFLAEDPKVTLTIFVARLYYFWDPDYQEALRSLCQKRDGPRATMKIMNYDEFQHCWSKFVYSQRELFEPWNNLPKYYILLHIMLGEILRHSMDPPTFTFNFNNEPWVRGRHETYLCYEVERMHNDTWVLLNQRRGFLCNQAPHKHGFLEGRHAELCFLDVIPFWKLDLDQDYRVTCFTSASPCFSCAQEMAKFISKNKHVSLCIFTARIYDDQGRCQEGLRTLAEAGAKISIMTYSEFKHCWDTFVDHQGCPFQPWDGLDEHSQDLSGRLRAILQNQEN
UniProt Q9HC16, whole entry W94L: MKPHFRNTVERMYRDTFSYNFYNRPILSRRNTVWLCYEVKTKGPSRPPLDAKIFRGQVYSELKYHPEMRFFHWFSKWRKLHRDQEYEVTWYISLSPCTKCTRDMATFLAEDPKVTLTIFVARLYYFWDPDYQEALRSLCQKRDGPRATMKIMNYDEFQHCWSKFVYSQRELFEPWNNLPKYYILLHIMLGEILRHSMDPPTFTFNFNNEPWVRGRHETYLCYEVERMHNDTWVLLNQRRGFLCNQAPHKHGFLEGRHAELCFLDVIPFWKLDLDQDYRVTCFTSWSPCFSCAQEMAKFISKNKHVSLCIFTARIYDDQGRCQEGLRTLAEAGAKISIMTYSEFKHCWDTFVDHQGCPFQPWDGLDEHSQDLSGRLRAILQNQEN
UniProt Q9HC16, whole entry W94L/R213E/R215E: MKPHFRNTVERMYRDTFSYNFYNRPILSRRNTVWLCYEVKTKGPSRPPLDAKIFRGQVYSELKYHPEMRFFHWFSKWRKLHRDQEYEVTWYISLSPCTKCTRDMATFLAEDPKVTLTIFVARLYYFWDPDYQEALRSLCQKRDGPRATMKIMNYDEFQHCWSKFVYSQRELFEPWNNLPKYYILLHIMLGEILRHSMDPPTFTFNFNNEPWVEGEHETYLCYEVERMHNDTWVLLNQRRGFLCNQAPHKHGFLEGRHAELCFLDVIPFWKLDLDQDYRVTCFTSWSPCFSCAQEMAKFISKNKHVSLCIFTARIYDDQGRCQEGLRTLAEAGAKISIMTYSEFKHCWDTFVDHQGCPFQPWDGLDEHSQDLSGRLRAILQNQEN
UniProt Q9HC16, whole entry W94L/R313E/R320E: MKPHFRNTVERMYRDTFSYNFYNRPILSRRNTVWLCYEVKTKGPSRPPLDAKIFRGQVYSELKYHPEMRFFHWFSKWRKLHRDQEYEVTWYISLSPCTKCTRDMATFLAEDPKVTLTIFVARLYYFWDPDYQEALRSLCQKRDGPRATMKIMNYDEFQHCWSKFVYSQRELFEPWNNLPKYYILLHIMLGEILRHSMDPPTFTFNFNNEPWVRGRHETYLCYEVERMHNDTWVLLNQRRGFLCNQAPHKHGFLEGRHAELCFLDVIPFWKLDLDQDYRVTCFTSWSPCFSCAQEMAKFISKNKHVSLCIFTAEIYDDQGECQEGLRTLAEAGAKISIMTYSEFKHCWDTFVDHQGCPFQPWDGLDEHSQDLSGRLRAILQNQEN
UniProt Q9HC16, whole entry W94L/R374E/R376E: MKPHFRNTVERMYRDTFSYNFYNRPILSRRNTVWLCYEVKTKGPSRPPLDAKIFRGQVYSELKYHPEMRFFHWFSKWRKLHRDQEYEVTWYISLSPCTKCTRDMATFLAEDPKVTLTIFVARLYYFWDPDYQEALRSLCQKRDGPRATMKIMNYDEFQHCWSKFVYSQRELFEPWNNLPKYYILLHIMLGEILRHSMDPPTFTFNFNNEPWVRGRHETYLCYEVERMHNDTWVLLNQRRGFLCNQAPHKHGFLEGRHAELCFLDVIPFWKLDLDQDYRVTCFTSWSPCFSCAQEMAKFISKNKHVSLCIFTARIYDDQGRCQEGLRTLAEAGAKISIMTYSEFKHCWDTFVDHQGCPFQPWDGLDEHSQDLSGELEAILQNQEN

For some assays here: Weaker means in comparison with the reference protein, sequence or condition of that experiment. For some assays here: Construct, isoform or probe ends are uncertain for at least one entry. For some assays here: At least one verdict was read from the data and is not stated in words by the source.

Common to all, as to test: EMSA
One series has as its target A3G E254R (human) (UniProt Q9HC16). The conditions noted are these: EMSA: 10 mM Tris-HCl pH 7.5, 50 mM NaCl, 0.5% NP-40, 4% glycerol, 1 mM MgCl2, 0.5 mM EDTA, 1 mM DTT, 20 min room temperature, 4 pmol oligo in 20 uL, gel at 4 C; recombinant protein; residues 1-384; protein details: C-terminal Strep; label: 5' Alexa488; single-stranded DNA.
The target of the next series is A3G R213E (human) (UniProt Q9HC16). The conditions noted are these: EMSA: 10 mM Tris-HCl pH 7.5, 50 mM NaCl, 0.5% NP-40, 4% glycerol, 1 mM MgCl2, 0.5 mM EDTA, 1 mM DTT, 20 min room temperature, 4 pmol oligo in 20 uL, gel at 4 C; recombinant protein; residues 1-384; protein details: C-terminal Strep; label: 5' Alexa488; single-stranded DNA.
The target in a further series is A3G R320E (human) (UniProt Q9HC16). Conditions: EMSA: 10 mM Tris-HCl pH 7.5, 50 mM NaCl, 0.5% NP-40, 4% glycerol, 1 mM MgCl2, 0.5 mM EDTA, 1 mM DTT, 20 min room temperature, 4 pmol oligo in 20 uL, gel at 4 C; recombinant protein; residues 1-384; protein details: C-terminal Strep; label: 5' Alexa488; single-stranded DNA.
Another series addresses A3G R374E (human) (UniProt Q9HC16). Conditions: EMSA: 10 mM Tris-HCl pH 7.5, 50 mM NaCl, 0.5% NP-40, 4% glycerol, 1 mM MgCl2, 0.5 mM EDTA, 1 mM DTT, 20 min room temperature, 4 pmol oligo in 20 uL, gel at 4 C; recombinant protein; residues 1-384; protein details: C-terminal Strep; label: 5' Alexa488; single-stranded DNA.
The next series concerns the target A3G R376E (human) (UniProt Q9HC16). Conditions: EMSA: 10 mM Tris-HCl pH 7.5, 50 mM NaCl, 0.5% NP-40, 4% glycerol, 1 mM MgCl2, 0.5 mM EDTA, 1 mM DTT, 20 min room temperature, 4 pmol oligo in 20 uL, gel at 4 C; recombinant protein; residues 1-384; protein details: C-terminal Strep; label: 5' Alexa488; single-stranded DNA.
In a further series the target is A3G W127A (human) (UniProt Q9HC16). The conditions noted are these: EMSA: 10 mM Tris-HCl pH 7.5, 50 mM NaCl, 0.5% NP-40, 4% glycerol, 1 mM MgCl2, 0.5 mM EDTA, 1 mM DTT, 20 min room temperature, 4 pmol oligo in 20 uL, gel at 4 C; recombinant protein; residues 1-384; protein details: C-terminal Strep; label: 5' Alexa488; single-stranded DNA.
Series [1] concerns the target A3G W127A/R213E/R215E (human) (UniProt Q9HC16). The conditions noted are these: EMSA: 10 mM Tris-HCl pH 7.5, 50 mM NaCl, 0.5% NP-40, 4% glycerol, 1 mM MgCl2, 0.5 mM EDTA, 1 mM DTT, 20 min room temperature, 4 pmol oligo in 20 uL, gel at 4 C; recombinant protein; residues 1-384; protein details: C-terminal Strep; label: 5' Alexa488; single-stranded DNA.
Series [2] has as its target A3G W127A/R313E/R320E (human) (UniProt Q9HC16). The conditions noted are these: EMSA: 10 mM Tris-HCl pH 7.5, 50 mM NaCl, 0.5% NP-40, 4% glycerol, 1 mM MgCl2, 0.5 mM EDTA, 1 mM DTT, 20 min room temperature, 4 pmol oligo in 20 uL, gel at 4 C; recombinant protein; residues 1-384; protein details: C-terminal Strep; label: 5' Alexa488; single-stranded DNA.
The target in series [3] is A3G W127A/R374E/R376E (human) (UniProt Q9HC16). The conditions noted are these: EMSA: 10 mM Tris-HCl pH 7.5, 50 mM NaCl, 0.5% NP-40, 4% glycerol, 1 mM MgCl2, 0.5 mM EDTA, 1 mM DTT, 20 min room temperature, 4 pmol oligo in 20 uL, gel at 4 C; recombinant protein; residues 1-384; protein details: C-terminal Strep; label: 5' Alexa488; single-stranded DNA.
Another series addresses A3G W285A (human) (UniProt Q9HC16). The conditions noted are these: EMSA: 10 mM Tris-HCl pH 7.5, 50 mM NaCl, 0.5% NP-40, 4% glycerol, 1 mM MgCl2, 0.5 mM EDTA, 1 mM DTT, 20 min room temperature, 4 pmol oligo in 20 uL, gel at 4 C; recombinant protein; residues 1-384; label: 5' Alexa488; single-stranded DNA.
Another series has as its target A3G W94L (human) (UniProt Q9HC16). The conditions noted are these: EMSA: 10 mM Tris-HCl pH 7.5, 50 mM NaCl, 0.5% NP-40, 4% glycerol, 1 mM MgCl2, 0.5 mM EDTA, 1 mM DTT, 20 min room temperature, 4 pmol oligo in 20 uL, gel at 4 C; recombinant protein; residues 1-384; protein details: C-terminal Strep; label: 5' Alexa488; single-stranded DNA.
In series [4] the target is A3G W94L/R213E/R215E (human) (UniProt Q9HC16). Conditions: EMSA: 10 mM Tris-HCl pH 7.5, 50 mM NaCl, 0.5% NP-40, 4% glycerol, 1 mM MgCl2, 0.5 mM EDTA, 1 mM DTT, 20 min room temperature, 4 pmol oligo in 20 uL, gel at 4 C; recombinant protein; residues 1-384; protein details: C-terminal Strep; label: 5' Alexa488; single-stranded DNA.
Series [5] addresses A3G W94L/R313E/R320E (human) (UniProt Q9HC16). Conditions: EMSA: 10 mM Tris-HCl pH 7.5, 50 mM NaCl, 0.5% NP-40, 4% glycerol, 1 mM MgCl2, 0.5 mM EDTA, 1 mM DTT, 20 min room temperature, 4 pmol oligo in 20 uL, gel at 4 C; recombinant protein; residues 1-384; protein details: C-terminal Strep; label: 5' Alexa488; single-stranded DNA.
Series [6] deals with A3G W94L/R374E/R376E (human) (UniProt Q9HC16). Conditions: EMSA: 10 mM Tris-HCl pH 7.5, 50 mM NaCl, 0.5% NP-40, 4% glycerol, 1 mM MgCl2, 0.5 mM EDTA, 1 mM DTT, 20 min room temperature, 4 pmol oligo in 20 uL, gel at 4 C; recombinant protein; residues 1-384; protein details: C-terminal Strep; label: 5' Alexa488; single-stranded DNA.

Turning to “GAAGAGGAAGGGAAGAAAGAGAAAGGGAGACCCAAAGAGGAAAGGTGAGGAGGTTAATTTGTGTAAATA [Alexa488 69-mer]”, the binding result was “binds” in the series with A3G E254R (human); “binds” with A3G R213E (human); “binds” in the series with A3G R320E (human); “binds” with A3G R374E (human); “binds” in the series with A3G R376E (human); “binds more weakly” in the series with A3G W127A (human). Moreover, the binding result is on record as “binds more weakly” in series [1]; “binds more weakly” in series [2]; “binds more weakly” in [3]; “binds” with A3G W285A (human); “binds more weakly” in the series with A3G W94L (human); “binds more weakly” in series [4]. Moreover, the binding result in series [5] and in series [6] was “binds more weakly” each time.
